## Results of single-concentration screens

Chains of the proteins cited; added tags and fusions are not shown. Residues count along the entry.
UniProt Q8IDJ8, 1-583: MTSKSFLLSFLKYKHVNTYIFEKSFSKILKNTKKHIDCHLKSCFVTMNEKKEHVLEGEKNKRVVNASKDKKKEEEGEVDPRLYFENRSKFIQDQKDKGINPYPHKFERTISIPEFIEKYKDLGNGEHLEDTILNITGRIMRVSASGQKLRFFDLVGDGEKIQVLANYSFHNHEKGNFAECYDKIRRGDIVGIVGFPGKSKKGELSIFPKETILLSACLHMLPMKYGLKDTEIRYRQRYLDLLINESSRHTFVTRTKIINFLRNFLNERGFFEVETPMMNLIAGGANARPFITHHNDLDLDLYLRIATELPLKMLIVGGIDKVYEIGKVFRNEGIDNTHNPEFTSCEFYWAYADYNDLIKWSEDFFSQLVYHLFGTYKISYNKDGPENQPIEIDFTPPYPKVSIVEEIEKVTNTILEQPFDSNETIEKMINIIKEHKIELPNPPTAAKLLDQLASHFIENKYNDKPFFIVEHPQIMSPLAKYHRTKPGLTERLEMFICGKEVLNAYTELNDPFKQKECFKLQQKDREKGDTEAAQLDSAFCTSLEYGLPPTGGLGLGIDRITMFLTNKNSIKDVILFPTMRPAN
UniProt Q4DA54, 1-478: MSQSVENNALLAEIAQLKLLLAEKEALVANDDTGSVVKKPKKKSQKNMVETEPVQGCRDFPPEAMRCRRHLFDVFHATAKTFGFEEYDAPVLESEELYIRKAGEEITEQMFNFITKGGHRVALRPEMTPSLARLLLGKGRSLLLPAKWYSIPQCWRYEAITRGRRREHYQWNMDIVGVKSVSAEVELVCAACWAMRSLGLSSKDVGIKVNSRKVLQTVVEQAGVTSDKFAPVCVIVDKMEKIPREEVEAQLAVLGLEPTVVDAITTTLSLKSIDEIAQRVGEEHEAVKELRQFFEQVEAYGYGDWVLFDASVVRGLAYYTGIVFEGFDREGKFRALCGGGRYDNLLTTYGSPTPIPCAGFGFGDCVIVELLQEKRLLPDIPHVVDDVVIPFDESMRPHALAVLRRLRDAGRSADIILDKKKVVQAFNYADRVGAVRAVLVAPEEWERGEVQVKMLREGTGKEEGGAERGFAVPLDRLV

From ChEMBL document CHEMBL3988442, “University of Dundee, Small-Polar-MMV Screening Library” (2021).

Leishmania in macrophages: 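Cell assay of Leishmania donovani living inside macrophages; the read-out is not stated. Tested at 30 µM. Higher reads as stronger inhibition (inferred: compounds with an IC50 in retests scored well above the rest). About 69,000 compounds were tested under these conditions; 1.5% (about 1,000) showed 50% or more at least once.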
T. brucei: 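Whole-parasite assay of Trypanosoma brucei over 72 hours; the read-out is not stated. Tested at 30 µM. The record gives no direction; compounds that gave an IC50 in retests scored well above the rest, so higher reads as stronger inhibition. Values scatter widely below zero; nearly all retest evidence comes from the higher of the two concentrations used. Size under these conditions: about 64,000 compounds, about 940 of them at 50% or above in at least one test.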
Toxoplasma: 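Assay of Toxoplasma gondii numbers, read through their beta-galactosidase reporter with a colour substrate. Tested at 10 µM. Higher reads as fewer parasites (inferred from which compounds were picked for retests). Of about 67,000 compounds tested this way, about 260 (0.38%) reached 50% or more in at least one test.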
PfKRS1: 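Enzyme assay of the cytosolic lysyl-tRNA synthetase in 384-well plates, read by luminescence. Target: Lysine-tRNA ligase, Plasmodium falciparum 3D7 (UniProt Q8IDJ8). Concentration: 30 µM. Higher reads as stronger inhibition, judged from the few compounds that gave an IC50. About 69,000 compounds were tested under these conditions; 0.071% (about 49) showed 50% or more at least once.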
TcHisRS: 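Enzyme assay of histidyl-tRNA synthetase; the read-out is not stated. Target: Histidine-tRNA ligase, Trypanosoma cruzi CL Brener (UniProt Q4DA54). Tested at 30 µM. The record gives no direction; compounds that gave an IC50 in retests scored well above the rest, so higher reads as stronger inhibition. Size under these conditions: about 69,000 compounds, about 31 of them at 50% or above in at least one test.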

Results are given as percent effect.
The controls that fix the scale are not given in the record; negative values are as filed.
The compounds are a random part of those screened.
Two or more numbers in one place are separate tests of the same structure; such repeats can differ widely.
A dash means the value is not listed here; it may have been measured.

compound	Leishmania in macrophages	T. brucei	Toxoplasma	PfKRS1	TcHisRS
CCCS(=O)(=O)c1ccc(N2CCC(Cc3ccccc3)CC2)nn1	-7.935 and 5.236	1.62	28.19	3.837	6.186
O=C(CN1CCCC1c1nc(-c2ccccn2)no1)N1CCOCC1 (stereo unspecified)	27.03	-16.77	-5.474	0.1072	5.319
COCC1CC2(CCN(C(=O)c3occc3C)CC2)CO1 (stereo unspecified)	4.627	-20.22	-1.774	-0.6419	4.348
Cc1cc(C)n(C2CN(CC(O)c3ccc(S(C)(=O)=O)cc3)C2)n1 (stereo unspecified)	31.08	6.603	-18.75	-1.8	2.882
COc1ccc(-c2nc3c([nH]2)CCNC3C(=O)O)c2ccccc12 (stereo unspecified)	23.75	13.81	2.041	3.804	24.58
CN1CCN2C[C@@H](CO)[C@H](c3ccccc3)[C@H]2C1	-	-	-	2.071	5.618
CC(=O)N1CCc2nc(-c3ccc(F)cc3)nc(NC(C)C)c2CC1	19.84	-38.33	-17.17	-0.2249	2.116
Cc1cc(=O)n2ncnc2n1CC(O)c1ccccc1Cl (stereo unspecified)	3.996	-15.26	0.3519	4.446	6.522
CC(=O)N1CC(=O)N(c2ccccc2)CC12CCN(CC1CC1)C2.O=C(O)C(F)(F)F (stereo unspecified)	-32.7	-46.29	3.118	-	-
Cl.NC1(c2nc(C(F)(F)F)cc(=O)[nH]2)CCCCC1	26.15	-38.44	17.17	-	-
[H][C@@]12CCCN1CCCN(C(=O)c1cnc(-c3ccc(C)cc3)nc1O)C2	32.63	-35.71	5.475	-	-
[H][C@@]12COC[C@]1([H])[C@@H](OCC1CC1)CN2C(=O)c1ccc2c(c1)OCO2	21.32	-59.43	-2.287	-	-
O=C1CC[C@]2(CC[C@@H](NC3CCOCC3)CC2)N1Cc1ccccc1	-	-	-	1.468	1.942
CCN1CCn2c(C)cnc2C12CCN(C(=O)c1ccc(Cl)cc1)CC2.O=C(O)C(F)(F)F	-13.94	39.51	-1.923	-	-
Cc1ccn(-c2ccc(N3CCN(Cc4ccccn4)CC3)nn2)n1	30.21	0.4983	0.3544	4.24	-0.4926
O=C1CCN(C(=O)c2csc(-c3ccc(C(F)(F)F)cc3)n2)CCN1	-4.65	-47.09	17.8	1.915	2.146
[H][C@@]12C[C@H](C(=O)N3CCCC3)CN(CC3CC3)[C@]1([H])CCO2	11.99 and 22.63	-31.49	13.73	-	-
Cc1ccccc1C(=O)N1CCC(n2nnc3cc(F)ccc32)CC1	12.85	14.03	-3.383	5.755	3.825
CNC(=O)CN1CCCC12CCN(C(=O)c1cccc(F)c1)CC2	-	-	-	5.564	1.942
CS(=O)(=O)CCOCCNc1ccc(C#N)cc1F	18.4	-21.36	-3.082	0.1491	10.53
CCCS(=O)(=O)N1CCOC2(CCCN(Cc3ccccn3)C2)C1 (stereo unspecified)	-	-	-	3.219	3.333
O=C(OCC1CCN(c2ccccc2)C1)c1cscn1 (stereo unspecified)	51.5	-23.71	6.559	4.942	1.84
Cc1cc(-c2ccccc2C(=O)O)nc(C2CCCN(C)C2)n1 (stereo unspecified)	12.4 and 17.91	0.3066	11.12	2.929	10
COCCn1cnc2ccc(NC(=O)c3ccccn3)cc2c1=O	12.35	5.778	-	5.547	6.931
NC(=O)c1ccc(-n2ccnc2-c2cccc(O)c2)cc1N1CCCC1	3.958	-0.3134	12.55	-3.215	6.667
CSCC[C@@H](CO)Nc1ccc(-c2nc(C3CC3)no2)cn1	-83.31	19.73	-2.997	4.052	0.5405
Cc1cc(CNC(=O)c2ccno2)c(C)o1	28.15	-17.23	-18.64	4.801	8
CCn1cc(S(=O)(=O)N2CCN(S(=O)(=O)c3ccc(Br)s3)CC2)c(C)n1	26.63	-19.72	3.229	0.1345	1.98
CCn1cc(C(=O)N2CCOC(c3nc(-c4cccs4)no3)C2)cn1 (stereo unspecified)	6.44 and 20.62	3.897	-2.557	3.794	10.99
Cc1ccc2c(c1)C1(CCN(C(=O)C3CC3)CC1)CC2N1CCOCC1.O=C(O)C(F)(F)F (stereo unspecified)	26.81	-2.768	-2.582	-	-
CC(O)CN1CCN(C(=O)c2ccc3c(c2)COC3)CC1 (stereo unspecified)	9.428	20.26	-	7.194	4.511
[H][C@@]12CCN(C(=O)c3cc(C)on3)C[C@@]1([H])O[C@@H](c1ccncn1)C2	14.57	-17.17	0.7729	-	-
NC(=O)CN1CCCN(C(=O)Cc2ccc(F)c(Br)c2)CC1	-11.01	24.84	-9.034	8.625	1.887
O=C(NCC(CO)Cc1ccc(Cl)cc1)c1ccncc1Cl (stereo unspecified)	-7.689	-12.96	-0.5483	1.411	0.5181
Cc1ccc(CNC(=O)Nc2nccs2)cn1	12.65	-	-31.31	2.42	4.571
O=C1CC(c2cccnc2)c2c(c(C(=O)O)cn2-c2cccc(F)c2)N1 (stereo unspecified)	52.29	6.307	14.82	7.63	3.96
Cn1c(CN2CCCC(Cn3cncn3)C2)nc2ccccc21 (stereo unspecified)	2.059	-	25.48	-3.839	6.706
CC(=O)NCCc1ccc(S(=O)(=O)N(C)C(C)CC(C)C)s1 (stereo unspecified)	29.27	-16.85	-5.625	-0.07996	0
CCn1cc(CNC2CC(=O)N(CCc3cccc(Cl)c3)C2)cn1 (stereo unspecified)	21.49	13.13	11.88	6.391	0
CCSc1ccc(C(=O)NCCc2nnc(-c3ccco3)[nH]2)cn1	15.02	38.14	17.67	6.519	6.667
CCOCCNC(=O)c1ccn(S(=O)(=O)c2ccc(C)cc2)c1	27.02	-28.83	2.256	5.993	7.65
[H][C@]12CN(C(=O)c3ccoc3C)C[C@@]1([H])OCCN(S(C)(=O)=O)C2	2.186 and -5.344	-70.81	-1.449	-	-
C[C@@H](NC(=O)c1cccs1)c1onc(-c2cccnc2)c1C(=O)O.Cl	4.993	-11.01	2.851	-	-
Cc1ccc(NC(=O)N2CCCC(O)C2)c(Br)c1 (stereo unspecified)	-31.3	-8.19	4.287	4.419	6.077
Cc1cc(CN(C)C(=O)c2ccnc(N(C)C)c2)no1	7.569	-35.6	-9.314	4.295	3.396

The last 4 entries again:

compound	Leishmania in macrophages	T. brucei	Toxoplasma	PfKRS1	TcHisRS
[H][C@]12CN(C(=O)c3ccoc3C)C[C@@]1([H])OCCN(S(C)(=O)=O)C2	2.186 and -5.344	-70.81	-1.449	-	-
C[C@@H](NC(=O)c1cccs1)c1onc(-c2cccnc2)c1C(=O)O.Cl	4.993	-11.01	2.851	-	-
Cc1ccc(NC(=O)N2CCCC(O)C2)c(Br)c1 (stereo unspecified)	-31.3	-8.19	4.287	4.419	6.077
Cc1cc(CN(C)C(=O)c2ccnc(N(C)C)c2)no1	7.569	-35.6	-9.314	4.295	3.396